57 molecules from PubChem BioAssay AID1487 (National Center for Advancing Translational Sciences (NCATS), 2009) can be followed below.

A short description of the experiment: qHTS Assay for Modulators of Lamin A Splicing. Conditions: HeLa LMNA splicing GFP/RFP minigene ratio, 48 h. In a few lines:
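S3 HeLa cells stably expressing lamin A-EGFP splicing minigene plus DsRed2, 600 cells/well, 48 h compound exposure at 37C. Laser-scanning cytometry; analysed as GFP (500-530 nm)/RFP (575-640 nm) total intensity ratio; 0.5% DMSO vehicle.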

Setting [1] is: measured here: GFP splicing reporter channel.
Where [2] appears, read: measured here: RFP viability control channel.

Some of the results follow. Further columns of the screen follow, without active or inactive calls. The list favours compounds with an active or inconclusive main result. The note in brackets gives the kind of curve behind each potency; many fits are weak.

The AC50 is the concentration giving half of the maximal activity seen. `Cc1c2c(n3c(nc4ccccc43)c1C#N)N(CCN(C)C)CC2`: under setting [1], the AC50 is 10 µM [falling, partial curve, poor fit].

Consider `CC12CCC(C(=O)N3CCc4ccccc43)(CC1=O)C2(C)C` (configuration not stated), for which, under setting [1], the AC50 is 2.51 µM [falling, partial curve, poor fit].

Take `CCOC(=O)c1c(NC(=O)CSc2n[nH]c(N)n2)sc(CC)c1C`: the AC50 reads like this: under setting [1], 17.8 µM [rising, partial curve, poor fit]; under setting [2], 14.1 µM [rising, single point].

Take `C/C(=N\NC(=O)c1c(Cl)cnn1C)c1cccc(NC(=O)COc2ccccc2)c1`: the AC50 under setting [2] was 11.2 µM [rising, partial curve, poor fit].

`O=C(CN1CCCCC1)Nc1ccc(N2CCCCCC2)cc1`: under setting [1], the AC50 was 1.12 µM [rising, partial curve].

As to `CCc1cnc2c(c1SCC(=O)NCc1ccc(C)cc1)c(=O)n(C)c(=O)n2C`, the AC50 under setting [1] was 0.0158 µM [falling, full curve, poor fit].

As for `CCSC1=NCCN1C(=O)c1c(-c2ccccc2Cl)noc1C`, the AC50 under setting [1] is 0.0282 µM [falling, full curve, poor fit].

For `CCOc1c(Br)cc(/C=N\NC(=O)c2ccccc2)cc1OC`, the AC50 is, setting by setting: under setting [1], 1.12 µM [rising, full curve, poor fit]; under setting [2], 17.8 µM [rising, partial curve, poor fit].

Turning to `CCCN(CC(=O)Nc1cc(Cl)ccc1Cl)C(=O)/C=C/c1ccco1`, under setting [2], the AC50 is 14.1 µM [rising, single point].

On to `Cc1cc(S(=O)(=O)Nc2ccc(C(=O)N3CCN(C(=O)c4ccco4)CC3)cc2)ccc1F`, for which the AC50 under setting [2] is 11.2 µM [rising, single point].

On to `COC(=O)c1cc(NC(=O)CN(c2ccccc2OC)S(=O)(=O)c2ccccc2)ccc1Cl`, for which the AC50 by setting is: under setting [1], 35.5 µM [rising, single point]; under setting [2], 31.6 µM [rising, single point].

For the molecule `Clc1ccc(CN2CCc3nc(N4CCN(c5ccccn5)CC4)ncc3C2)cc1`, the AC50 under setting [1] was 0.0251 µM [falling, full curve, poor fit] and the AC50 under setting [2] was 0.0316 µM [falling, full curve, poor fit].

Consider `CCc1ccccc1N1C(=O)c2ccccc2S1(=O)=O`, for which the AC50 runs as follows: under setting [1], 17.8 µM [rising, single point]; under setting [2], 35.5 µM [rising, single point].

For the molecule `Cc1c(C(=O)Nc2nc3ccccc3[nH]2)oc2ccc(Br)cc12`, the AC50 under setting [2] is 22.4 µM [rising, partial curve, poor fit].

Take `CCOC(=O)c1cc(-c2ccccc2)n(CCCC(=O)Nc2cccc(C)c2)c1C`: the AC50 under setting [2] was 35.5 µM [rising, single point].

With `Cc1cc(Oc2ccccc2)nc(SCC(=O)Nc2ccccc2)n1`, the AC50 under setting [2] was 10 µM [rising, partial curve].

In the case of `O=C(CCc1ccccc1)Nc1ccncc1`, the AC50 under setting [2] is 11.2 µM [rising, single point].

Consider `CC(/C=N/NC(=O)NC1CCCCC1)=C\c1ccccc1`, for which the AC50 under setting [1] was 12.6 µM [falling, single point] and the AC50 under setting [2] was 22.4 µM [falling, single point].

On to `CC(C)CC(=O)NCC(c1ccc2c(c1)OCO2)N1CCN(c2ccc(F)cc2)CC1` (configuration not stated), for which the AC50 under setting [2] is 0.0447 µM [falling, full curve, poor fit].

On to `CCOC(=O)c1cc(-c2ccc(N3CCOCC3)cc2)nn1-c1ccc(F)cc1F`, for which the AC50 reads like this: under setting [1], 8.91 µM [rising, partial curve, poor fit]; under setting [2], 22.4 µM [rising, single point].

With `CCOC(=O)C1CCN(C(=O)c2cc3cc(Br)ccc3oc2=O)CC1`, the AC50 under setting [1] was 7.08 µM [falling, partial curve, poor fit].

For `O=C(c1cccs1)c1cn(CC(=O)N2CCc3ccccc3C2)c2ccccc12`, the AC50 under setting [2] was 11.2 µM [rising, single point].

As for `CCOc1ccc(S(=O)(=O)NCc2ccc3c(c2)CCN3C(=O)c2ccc(C)cc2)cc1`, the AC50 is 11.2 µM [falling, partial curve] under setting [1] and 12.6 µM [falling, partial curve] under setting [2].

In the case of `CCn1ccc2cc(S(=O)(=O)N3CCC(C(=O)NCC(C)c4ccccc4)CC3)ccc21` (configuration not stated), the AC50 by setting is: under setting [1], 35.5 µM [falling, single point]; under setting [2], 3.16 µM [falling, partial curve, poor fit].

Turning to `Cc1ccc(-n2ncc(C(=O)NCc3ccccn3)c2C2CCN(C(=O)OC(C)(C)C)CC2)cc1C`, the AC50 under setting [1] was 0.00316 µM [falling, full curve, poor fit].

For `CC(=O)Nc1ccc(SCC(=O)Nc2ccccc2Oc2ccccc2)cc1`, under setting [2], the AC50 is 31.6 µM [rising, single point].

For `O=C(Nc1ccncc1)C1CCCN(S(=O)(=O)c2cccc3cccnc23)C1` (configuration not stated), under setting [2], the AC50 was 2.51 µM [rising, full curve].

As for `CN(C(=O)/C=C/c1ccc([N+](=O)[O-])s1)c1ccccc1`, under setting [2], the AC50 is 35.5 µM [falling, single point].

For `COc1ccccc1C1C(C(C)=O)=C(O)C(=O)N1CCc1ccccc1` (configuration not stated), the AC50 under setting [2] was 35.5 µM [rising, single point].

As to `CC(C)CC(=O)Nc1ccc2c(c1)OCO2`, under setting [2], the AC50 was 1.78 µM [falling, full curve, poor fit].

Turning to `O=C(Nc1ccc(C(F)(F)F)cc1)c1cc(S(=O)(=O)N2CCCc3ccccc32)ccc1F`, the AC50 under setting [1] is 0.0178 µM [falling, full curve, poor fit].

Regarding `O=C(CN1CCC(n2nnc3cc(F)ccc32)CC1)NC1CCCCC1`, under setting [1], the AC50 was 14.1 µM [rising, partial curve, poor fit].

As for `COc1ccc(Br)cc1/C=C/C(=O)Nc1ccc2ccccc2c1`, the AC50 under setting [2] was 10 µM [rising, partial curve, poor fit].

Regarding `COc1ccc(Nc2ncc3c(n2)CCN(Cc2cccc(F)c2F)C3)c(OC)c1`, the half-maximal activity concentration (AC50) under setting [1] is 0.0794 µM [falling, full curve, poor fit].

For the molecule `CCNc1ncc2nc(C)c(=O)n(CCc3ccccc3)c2n1`, the AC50 under setting [1] is 17.8 µM [falling, single point].

Take `NC(=O)NC(CC(=O)NCCCc1ccccc1)c1ccccc1Cl` (configuration not stated): the AC50 under setting [2] is 0.0794 µM [rising, full curve, poor fit].

As to `CCN1CCC(N(Cc2ccc3c(c2)OCO3)C(=O)Nc2cccc(C)c2C)CC1`, the AC50 under setting [2] is 0.1 µM [rising, partial curve].

Turning to `CC(=O)N(c1ccc(Cl)cc1)c1c[nH]c2ccccc12`, the AC50 under setting [2] is 8.91 µM [rising, partial curve].

For the molecule `O=[N+]([O-])c1cc(S(=O)(=O)Nc2ccccc2)ccc1NCc1ccccc1`, the AC50 under setting [1] was 12.6 µM [rising, single point] and the concentration at half-maximal activity (AC50) under setting [2] was 17.8 µM [rising, partial curve].

Regarding `CCN(CC)S(=O)(=O)c1ccc(Cl)c(C(=O)NCc2ccccc2Cl)c1`, the AC50 under setting [2] is 25.1 µM [rising, single point].

In the case of `CCOC(=O)c1c(-c2ccc(C)o2)csc1NC(=O)CSc1nnnn1-c1ccccc1`, the half-maximal activity concentration (AC50) runs as follows: under setting [1], 11.2 µM [rising, partial curve]; under setting [2], 12.6 µM [rising, partial curve].

Regarding `c1ccc2c(SCc3cn4cccnc4n3)ncnc2c1`, the AC50 under setting [2] was 15.8 µM [rising, single point].

In the case of `CC12CC(c3ccccc3O1)C(/C(N)=N/NC(=O)c1ccc(F)cc1)C(=O)N2` (configuration not stated), the AC50 under setting [2] was 22.4 µM [rising, partial curve, poor fit].

Consider `COC(=O)c1ccc(Sc2ccc(C)cc2)c(N)c1`, for which the AC50 under setting [2] was 17.8 µM [rising, single point].

On to `COc1cccc(C(=O)C2CCCN(C(=O)c3cccc(C#CC(C)(C)O)c3)C2)c1` (configuration not stated), for which the AC50 under setting [1] is 0.794 µM [falling, full curve, poor fit] and the AC50 under setting [2] was 0.447 µM [falling, full curve, poor fit].

On to `CNC(=O)[C@H]1O[C@@H](n2cnc3c(NCc4ccc(I)cc4)nc(Cl)nc32)[C@H](O)[C@@H]1O`, for which the AC50 reads like this: under setting [1], 20 µM [falling, partial curve]; under setting [2], 35.5 µM [falling, partial curve].

On to `Oc1c(C(c2ccccc2Cl)N2CCC(O)CC2)sc2nc(-c3ccco3)nn12` (configuration not stated), for which the AC50 under setting [2] was 5.01 µM [falling, partial curve, poor fit].

On to `Cc1c(C(=O)N2CCc3ccccc3C2)sc2nc(-c3ccccc3)cn12`, for which the AC50 is, setting by setting: under setting [1], 11.2 µM [rising, partial curve]; under setting [2], 25.1 µM [rising, single point].

Turning to `O=C(OCCN1C(=O)c2cccc3c(N4CCOCC4)ccc(c23)C1=O)c1ccccc1Cl`, the AC50 under setting [2] is 6.31 µM [rising, partial curve].

Take `CCOc1ncccc1C(=O)Nc1ccc(S(=O)(=O)NC2=NCCCCC2)cc1`: the AC50 under setting [1] is 6.31 µM [falling, partial curve, poor fit].

For the molecule `COc1ccc(OC)c(C(=O)c2coc3ccc(OC)cc23)c1`, under setting [2], the AC50 is 35.5 µM [rising, single point].

Consider `CC(C)CNC(C(=O)Nc1ccc([N+](=O)[O-])cc1Br)c1ccccc1` (configuration not stated), for which, under setting [2], the AC50 was 35.5 µM [rising, single point].

Regarding `CC1CCN(C(=O)c2ccc(CSc3ccc(Cl)cc3)cc2)CC1`, under setting [2], the AC50 is 15.8 µM [rising, single point].

Regarding `Cc1ccc2c(c1)nnn2C1CCN(S(=O)(=O)c2ccc3ccccc3c2)CC1`, the AC50 is 35.5 µM [rising, single point] under setting [1] and 20 µM [rising, partial curve] under setting [2].

With `C/C(CC1CC(C)(C)OC1=O)=N/Nc1nc(-c2ccccc2)cs1` (configuration not stated), the AC50 under setting [2] is 1.41 µM [rising, partial curve].

Take `CC(C)Cn1cnc2c(N)nc3ccccc3c21`: the AC50 under setting [2] is 12.6 µM [rising, single point].

As to `COc1ccc2oc(=O)c(C(=O)OCC(=O)c3ccc([N+](=O)[O-])cc3)cc2c1`, the AC50 under setting [2] was 4.47 µM [rising, partial curve].
